Data from PubChem BioAssay AID2685 (National Center for Advancing Translational Sciences (NCATS), 2010).
The other results are listed elsewhere or left out. Further columns of the screen follow, without active or inactive calls. The list favours compounds with an active or inconclusive main result. The note in brackets gives the kind of curve behind each potency; many fits are weak.

Assay: qHTS Assay for Lipid Storage Modulators in Drosophila S3 Cells;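 on cell number change: cells counted by Cell Tracker Red CMTPX staining in the red channel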
Conditions: BODIPY lipid droplet fluorescence, 18-24 h; for cell number change: measured here: cell count max response, cells fed with added oleic acid
Summary of the method: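 Drosophila S3 cells got compounds at several concentrations plus oleic acid (400 uM solution). Laser-scanning cytometry with 488 nm excitation read lipid droplets at 500-530 nm and cells at 575-640 nm. Percent activity was relative to 20 uM Triacsin C.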

[1] = measured here: lipid fluorescence (Fed channel) AC50, cells fed with added oleic acid
[2] = measured here: cell number channel AC50, cells fed with added oleic acid

Row | Compound | cell number change | AC50 [1] | AC50 [2]
1 | CC(=O)Nc1ccc(NC(=O)CS(=O)(=O)Cc2ccccc2)cc1 | 15.1% | 29.1 µM [falling, single point] | –
2 | CCN(CC(=O)NCc1ccc(Cl)cc1)C(=O)C1CCN(S(=O)(=O)c2ccc(OC)c(OC)c2)CC1 | – | 4.61 µM [falling, single point] | –
3 | COc1ccc(C(=O)Nc2ccc(S(=O)(=O)Nc3onc(C)c3C)cc2)cc1 | – | – | 6.51 µM [falling, single point]
4 | COC(=O)COc1nsnc1N1CCOCC1 | – | 2.91 µM [falling, full curve] | –
5 | COC(C[C@H](O)C[C@@H](O)[C@H](C)OCc1ccccc1)OC | 0.327% | 0.013 µM [falling, full curve, poor fit] | –
6 | Cc1nc2scc(-c3ccc(Cl)cc3)c2c(=O)o1 | – | 0.82 µM [rising, full curve, poor fit] | 1.3 µM [rising, partial curve]
7 | COC(=O)c1cc2sc(Cl)cc2n1CC(=O)Nc1cccc(SC)c1 | -1.78% | 29.1 µM [falling, single point] | –
8 | NS(=O)(=O)c1cccc(NC(=O)COC(=O)Cn2cc(C(F)(F)F)ccc2=O)c1 | 12.2% | 32.6 µM [rising, single point] | –
9 | CCc1ccc(NC(=O)CSc2nc3ccsc3c(=O)n2CCC(=O)O)cc1 | -2.09% | – | –
10 | CS(=O)(=O)N1N=C(c2ccco2)CC1c1ccccc1Cl (stereo not drawn) | 15.8% | – | –
11 | O=C(COc1ccc2c(c1)oc(=O)c1ccccc12)NCC1CCC(C(=O)O)CC1 (stereo not drawn) | -0.616% | 0.58 µM [rising, single point] | –
12 | CC(=O)OCP(C)(=O)COC(C)=O | -19.9% | 5.8 µM [falling, full curve] | –
13 | Cc1ccc(Nc2ccc(C(N)=O)cc2[N+](=O)[O-])cc1C | -96.8% | – | 29.1 µM [falling, single point]
14 | O=C(C1=C(O)C(=O)N(CC2CCCO2)C1c1ccc(Cl)cc1Cl)c1ccco1 (stereo not drawn) | 5.56% | – | –
15 | Cc1cccc(N(CC(=O)N/N=C/c2ccccc2C(=O)O)S(C)(=O)=O)c1C | 34.9% | 18.4 µM [rising, single point] | 16.4 µM [rising, single point]
16 | CCn1cc(C(=O)NC2CCCCC2)c(=O)c2cc(S(=O)(=O)N(C)C)ccc21 | -17.3% | 6.51 µM [falling, single point] | –
17 | CCOC(=O)C(C)Sc1nc2ccccc2c(=O)n1CC (stereo not drawn) | -8.98% | 0.731 µM [falling, full curve] | –
18 | CC(C)(C)CC(=O)Nc1nnc(-c2cccs2)s1 | 14% | – | 3.66 µM [rising, single point]
19 | O=C(c1cccs1)N1CCN(C(=O)c2ccco2)c2ccccc2C1 | 18.5% | 16.4 µM [rising, single point] | –
20 | CN1C(=O)/C(=C/c2ccccc2Cl)Sc2ccc(C(=O)N3CCCC3)cc21 | -19.8% | – | –
21 | Cc1[nH]c(=O)[nH]c(=O)c1S(=O)(=O)N1CCN(c2ccccc2F)CC1 | -31.3% | 0.164 µM [falling, full curve] | 3.66 µM [falling, full curve]
22 | Cc1cc(C)cc(Nc2nc3c(S(=O)(=O)c4ccccc4)nnn3c3ccccc23)c1 | – | 0.731 µM [rising, single point] | –
23 | COc1cccc(C2c3[nH]c4ccccc4c3C[C@H]3C(=O)N(c4ccccc4C(=O)N4CCC[C@H]4C(=O)O)C(=O)N23)c1 (stereo partly drawn) | 6.98% | 29.1 µM [rising, single point] | –
24 | CCn1cc(C(=O)NCCCN(C)c2ccccc2)c(=O)c2cc(S(=O)(=O)N(C)C)ccc21 | -17.9% | 23.1 µM [falling, single point] | –
25 | COc1ccc(OC)c(NS(=O)(=O)c2ccc(NC(=O)C3COc4ccccc4O3)cc2)c1 (stereo not drawn) | -2.79% | 0.116 µM [rising, full curve, poor fit] | 0.58 µM [rising, full curve, poor fit]
26 | CCOc1ccc(NC(=O)c2c(NC(=O)CN3CCN(C)CC3)sc3c2CCC3)cc1 | 5.82% | 0.116 µM [rising, full curve, poor fit] | –
27 | COc1ccc(NC(=O)COC(=O)CNS(=O)(=O)c2ccccc2)cc1OC | -22.7% | – | –
28 | O=C(Nc1sc2c(c1C(=O)NCc1cccnc1)CCCC2)c1ccco1 | – | 1.64 µM [rising, partial curve] | 1.46 µM [rising, partial curve]
29 | CC(C)(C)NS(=O)(=O)c1ccc(NC(=O)C(Sc2ccccc2)c2ccccc2)cc1 (stereo not drawn) | -14.4% | – | –
30 | O=C(CSc1nccc(=O)[nH]1)NC1CCCC1 | -3.85% | 0.116 µM [falling, single point] | –

Rewritten as labelled records: part of the list above.
O=C(COc1ccc2c(c1)oc(=O)c1ccccc12)NCC1CCC(C(=O)O)CC1 (stereo not drawn)
  cell number change: -0.616%
  AC50 [1]: 0.58 µM [rising, single point]
CC(=O)OCP(C)(=O)COC(C)=O
  cell number change: -19.9%
  AC50 [1]: 5.8 µM [falling, full curve]
